Assay results: the supplement of paper PMC4604168 (melanoma cell lines)
Some of the results follow. Many values rest on one well or one pass, so single values are uncertain.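 Cells were imaged in 1,536-well plates, and nuclei stained with an antibody against cleaved PARP were counted against all DNA-stained nuclei to give the apoptosis fraction. Screening doses were chosen to leave most cells alive, and resting and induced cleaved-PARP levels differ strongly between cell lines.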

What was measured:
Assay in all cases: cleaved PARP positive nuclei fraction relative to DMSO control; melanoma cells; higher = more apoptosis
Conditions in all cases: library dose: low library concentration; 72 h
WM115 = tested on: WM115
WM1716 = tested on: WM1716
WM1745 = tested on: WM1745
WM3526 = tested on: WM3526
WM3619 = tested on: WM3619
WM451Lu = tested on: WM451Lu

SMILES	cleaved PARP positive nuclei fraction (WM115)	cleaved PARP positive nuclei fraction (WM1716)	cleaved PARP positive nuclei fraction (WM1745)	cleaved PARP positive nuclei fraction (WM3526)	cleaved PARP positive nuclei fraction (WM3619)	cleaved PARP positive nuclei fraction (WM451Lu)
C=CCNC1=C2C[C@@H](C)C[C@H](OC)[C@H](O)[C@@H](C)/C=C(\C)[C@H](OC(N)=O)[C@@H](OC)/C=C\C=C(/C)C(=O)NC(=CC1=O)C2=O [Tanespimycin] + Oc1nc(-c2ccc(C(F)(F)F)cc2)nc2c1CSCC2 [XAV939] (first compound 0.002 µM, partner dose 2 µM)	155%	91.8%	150%	77.3%	124%	66.3%
C[C@@H]1CCN(C(=O)CC#N)C[C@@H]1N(C)c1ncnc2[nH]ccc12 + CCc1ccc(CCOc2ccc(CC3SC(=O)NC3=O)cc2)nc1 [pioglitazone] (first compound 1 µM, partner dose 2 µM)	143%	88.3%	105%	142%	74.2%	65.3%
CC(C)(C)c1cnc(CSc2cnc(NC(=O)C3CCNCC3)s2)o1 + COc1cc(N2CCC(N3CCN(C)CC3)CC2)ccc1Nc1ncc(Cl)c(Nc2ccccc2S(=O)(=O)C(C)C)n1 [NVP-TAE684] (first compound 0.01 µM, partner dose 0.08 µM)	99.4%	93%	126%	61.3%	252%	121%
C#Cc1cccc(Nc2ncnc3cc(OCCOC)c(OCCOC)cc23)c1 [erlotinib] + Cc1cc(N2CCOCC2)cc2[nH]c(-c3c(NC[C@@H](O)c4cccc(Cl)c4)cc[nH]c3=O)nc12 [BMS536924] (first compound 0.8 µM, partner dose 0.2 µM)	87.7%	46.6%	166%	85.3%	84.6%	200%
COc1cc(Nc2ncc(F)c(Nc3ccc4c(n3)NC(=O)C(C)(C)O4)n2)cc(OC)c1OC [Tamatinib] + CC1(C)NC(=O)N(c2ccc([N+](=O)[O-])c(C(F)(F)F)c2)C1=O [nilutamide] (first compound 0.4 µM, partner dose 1 µM)	98.2%	185%	134%	73.5%	86.3%	93.2%
Nc1cccc2c1CN(C1CCC(=O)NC1=O)C2=O (centres undefined) [lenalidomide] + COc1ccc(-c2ccc3c(N4CCOCC4)nc(N4C[C@@H](C)O[C@@H](C)C4)nc3n2)cc1CO [KU0063794] (first compound 1 µM, partner dose 0.02 µM)	162%	52.9%	199%	78%	113%	59.1%
Cn1nnc2c(C(N)=O)ncn2c1=O [temozolomide] + C=CCn1c(=O)c2cnc(Nc3ccc(N4CCN(C)CC4)cc3)nc2n1-c1cccc(C(C)(C)O)n1 [MK1775] (first compound 2 µM, partner dose 0.02 µM)	197%	218%	112%	58.8%	107%	88.7%
C=CCNC1=C2C[C@@H](C)C[C@H](OC)[C@H](O)[C@@H](C)/C=C(\C)[C@H](OC(N)=O)[C@@H](OC)/C=C\C=C(/C)C(=O)NC(=CC1=O)C2=O [Tanespimycin] + COc1cc2c(Oc3ccc4[nH]c(C)cc4c3F)ncnc2cc1OCCCN1CCCC1 [cediranib] (first compound 0.002 µM, partner dose 0.4 µM)	325%	65.8%	7340%	66.5%	88.2%	114%
Cn1c(Nc2ccc(C(F)(F)F)cc2)nc2cc(Oc3ccnc(-c4ncc(C(F)(F)F)[nH]4)c3)ccc21 + Oc1nc(-c2ccc(C(F)(F)F)cc2)nc2c1CSCC2 [XAV939] (first compound 0.08 µM, partner dose 2 µM)	740%	427%	187%	145%	121%	305%
